The chains are these.
T1: Hexa-His-tagged PpiC (wild type) (E. coli, UniProt P0A9L5 1-93)
T1 construct: PpiC, parvulin peptidyl-prolyl cis/trans isomerase, E. coli; coding region of the ppiC gene in pET24b; The tag is called cleavable; also called wt PpiC; wild-type PpiC; source: E. coli T7 express derivative lacking all six PPIs (SR21984), IPTG-induced; in lysate on Ni-NTA for co-elution; purified (Ni-NTA) for ITC; not shown: His6, C-terminal, kept
T1 sequence (looked up): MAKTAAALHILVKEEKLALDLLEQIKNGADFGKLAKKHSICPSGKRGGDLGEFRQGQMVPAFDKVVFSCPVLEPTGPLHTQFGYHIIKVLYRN

Amino acid sequences for entries named in this document (tags omitted).
UniProt P0AEZ3: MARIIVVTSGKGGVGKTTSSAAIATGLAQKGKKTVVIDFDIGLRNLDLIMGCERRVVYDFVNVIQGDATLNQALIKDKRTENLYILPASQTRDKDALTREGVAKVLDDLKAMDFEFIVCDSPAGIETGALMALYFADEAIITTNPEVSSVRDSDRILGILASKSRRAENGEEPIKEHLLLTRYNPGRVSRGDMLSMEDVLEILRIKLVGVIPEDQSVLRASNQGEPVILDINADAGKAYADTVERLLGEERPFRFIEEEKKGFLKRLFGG
UniProt P13029: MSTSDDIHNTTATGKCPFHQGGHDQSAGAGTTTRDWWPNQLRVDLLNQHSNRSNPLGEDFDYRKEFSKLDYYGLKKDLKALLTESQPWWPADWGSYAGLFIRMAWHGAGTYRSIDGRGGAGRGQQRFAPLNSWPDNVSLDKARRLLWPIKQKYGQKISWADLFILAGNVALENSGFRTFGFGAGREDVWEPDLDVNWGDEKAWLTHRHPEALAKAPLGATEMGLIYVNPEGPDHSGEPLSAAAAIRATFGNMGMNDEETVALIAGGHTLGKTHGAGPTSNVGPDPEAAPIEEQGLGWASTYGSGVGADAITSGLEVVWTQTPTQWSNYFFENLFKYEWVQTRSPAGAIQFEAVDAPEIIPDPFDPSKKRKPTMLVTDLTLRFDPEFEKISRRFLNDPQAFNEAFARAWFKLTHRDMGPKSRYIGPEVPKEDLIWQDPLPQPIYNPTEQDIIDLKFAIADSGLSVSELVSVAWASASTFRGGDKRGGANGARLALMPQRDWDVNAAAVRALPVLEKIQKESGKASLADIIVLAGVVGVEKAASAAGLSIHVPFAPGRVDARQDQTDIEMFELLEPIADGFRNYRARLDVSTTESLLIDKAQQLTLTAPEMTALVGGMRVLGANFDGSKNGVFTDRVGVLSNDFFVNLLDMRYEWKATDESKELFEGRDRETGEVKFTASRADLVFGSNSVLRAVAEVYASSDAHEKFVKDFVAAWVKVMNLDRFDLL
UniProt P0A6H5: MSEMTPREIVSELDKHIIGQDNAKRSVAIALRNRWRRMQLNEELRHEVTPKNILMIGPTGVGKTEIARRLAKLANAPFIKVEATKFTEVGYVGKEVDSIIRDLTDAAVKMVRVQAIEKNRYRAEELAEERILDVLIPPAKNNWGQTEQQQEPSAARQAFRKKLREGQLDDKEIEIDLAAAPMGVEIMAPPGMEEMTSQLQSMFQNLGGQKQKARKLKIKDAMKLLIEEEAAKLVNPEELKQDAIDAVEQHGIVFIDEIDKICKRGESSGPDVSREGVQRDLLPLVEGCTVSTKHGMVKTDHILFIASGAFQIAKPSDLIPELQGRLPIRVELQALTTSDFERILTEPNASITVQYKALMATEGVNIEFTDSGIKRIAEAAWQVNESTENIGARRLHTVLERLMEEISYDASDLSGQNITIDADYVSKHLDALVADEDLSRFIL
UniProt P0A9P0: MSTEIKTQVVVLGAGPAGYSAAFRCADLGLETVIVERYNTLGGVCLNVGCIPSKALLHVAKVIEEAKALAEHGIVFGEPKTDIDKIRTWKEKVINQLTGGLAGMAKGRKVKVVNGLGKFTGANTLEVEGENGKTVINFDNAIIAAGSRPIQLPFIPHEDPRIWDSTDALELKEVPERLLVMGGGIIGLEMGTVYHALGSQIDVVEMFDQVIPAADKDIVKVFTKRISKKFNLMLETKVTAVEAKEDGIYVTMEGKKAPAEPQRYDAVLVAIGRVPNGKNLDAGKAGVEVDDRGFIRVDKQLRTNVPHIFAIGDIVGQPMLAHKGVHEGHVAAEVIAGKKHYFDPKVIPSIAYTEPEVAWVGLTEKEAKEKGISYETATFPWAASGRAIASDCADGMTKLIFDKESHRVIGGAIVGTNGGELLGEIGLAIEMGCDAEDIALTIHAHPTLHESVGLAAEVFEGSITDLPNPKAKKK
UniProt P0A6H1: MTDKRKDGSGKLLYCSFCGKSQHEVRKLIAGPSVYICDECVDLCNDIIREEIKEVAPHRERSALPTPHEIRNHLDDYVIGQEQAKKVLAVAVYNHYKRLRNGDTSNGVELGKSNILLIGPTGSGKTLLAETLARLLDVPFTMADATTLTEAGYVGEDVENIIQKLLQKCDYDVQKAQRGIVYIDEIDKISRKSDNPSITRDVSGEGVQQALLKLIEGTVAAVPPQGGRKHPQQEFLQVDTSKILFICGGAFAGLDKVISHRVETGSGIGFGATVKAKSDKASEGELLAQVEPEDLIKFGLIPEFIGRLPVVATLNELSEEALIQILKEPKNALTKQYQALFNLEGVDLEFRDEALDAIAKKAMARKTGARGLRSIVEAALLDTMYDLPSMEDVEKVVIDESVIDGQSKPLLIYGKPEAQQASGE
UniProt P0A9A6: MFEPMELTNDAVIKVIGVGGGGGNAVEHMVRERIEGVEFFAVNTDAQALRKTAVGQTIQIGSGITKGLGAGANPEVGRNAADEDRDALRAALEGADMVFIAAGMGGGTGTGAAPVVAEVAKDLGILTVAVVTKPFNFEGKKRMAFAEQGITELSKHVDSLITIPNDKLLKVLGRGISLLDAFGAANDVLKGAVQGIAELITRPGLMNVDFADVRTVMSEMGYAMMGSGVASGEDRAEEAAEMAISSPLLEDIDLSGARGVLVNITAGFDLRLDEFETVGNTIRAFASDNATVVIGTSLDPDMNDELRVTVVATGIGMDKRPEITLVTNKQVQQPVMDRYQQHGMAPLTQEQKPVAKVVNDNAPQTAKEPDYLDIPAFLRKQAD
UniProt P0A6U3: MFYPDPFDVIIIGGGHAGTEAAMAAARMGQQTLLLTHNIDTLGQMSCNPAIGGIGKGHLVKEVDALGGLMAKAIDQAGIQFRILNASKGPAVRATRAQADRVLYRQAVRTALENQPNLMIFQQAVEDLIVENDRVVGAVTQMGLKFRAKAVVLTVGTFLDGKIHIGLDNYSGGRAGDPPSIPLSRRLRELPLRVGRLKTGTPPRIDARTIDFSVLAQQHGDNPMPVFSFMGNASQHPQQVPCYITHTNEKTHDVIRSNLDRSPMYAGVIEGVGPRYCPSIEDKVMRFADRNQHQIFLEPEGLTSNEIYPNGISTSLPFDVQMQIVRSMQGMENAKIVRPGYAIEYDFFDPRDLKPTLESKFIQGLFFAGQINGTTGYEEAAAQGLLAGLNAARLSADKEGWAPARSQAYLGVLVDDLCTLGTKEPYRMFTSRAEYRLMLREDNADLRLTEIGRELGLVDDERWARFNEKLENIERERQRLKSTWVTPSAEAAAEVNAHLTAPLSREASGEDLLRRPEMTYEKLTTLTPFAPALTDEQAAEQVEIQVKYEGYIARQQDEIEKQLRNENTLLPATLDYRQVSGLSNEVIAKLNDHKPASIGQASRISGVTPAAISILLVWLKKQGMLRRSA
UniProt P0A6P9: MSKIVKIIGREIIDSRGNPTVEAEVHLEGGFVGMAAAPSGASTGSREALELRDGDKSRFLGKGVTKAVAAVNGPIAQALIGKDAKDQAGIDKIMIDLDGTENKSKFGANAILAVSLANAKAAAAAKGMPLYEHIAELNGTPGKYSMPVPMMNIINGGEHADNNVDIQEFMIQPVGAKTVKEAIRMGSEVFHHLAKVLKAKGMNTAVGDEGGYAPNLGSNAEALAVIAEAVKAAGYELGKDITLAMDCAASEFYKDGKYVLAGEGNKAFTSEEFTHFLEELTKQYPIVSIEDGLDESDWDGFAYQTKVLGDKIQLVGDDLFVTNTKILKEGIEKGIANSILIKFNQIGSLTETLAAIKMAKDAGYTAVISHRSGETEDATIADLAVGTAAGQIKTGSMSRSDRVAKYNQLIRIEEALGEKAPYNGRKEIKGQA
UniProt P0A7G6: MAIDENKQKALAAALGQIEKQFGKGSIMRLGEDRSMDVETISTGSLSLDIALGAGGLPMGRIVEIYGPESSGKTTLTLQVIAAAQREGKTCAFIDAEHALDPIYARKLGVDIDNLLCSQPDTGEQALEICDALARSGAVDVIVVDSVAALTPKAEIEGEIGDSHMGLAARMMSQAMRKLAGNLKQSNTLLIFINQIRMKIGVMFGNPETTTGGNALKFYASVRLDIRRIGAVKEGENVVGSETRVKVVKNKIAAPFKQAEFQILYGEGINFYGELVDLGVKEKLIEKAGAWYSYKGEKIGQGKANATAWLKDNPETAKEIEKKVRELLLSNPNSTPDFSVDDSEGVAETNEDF

T2: His6-tagged PpiB (wild type) (E. coli) (UniProt P23869)
T2 sequence: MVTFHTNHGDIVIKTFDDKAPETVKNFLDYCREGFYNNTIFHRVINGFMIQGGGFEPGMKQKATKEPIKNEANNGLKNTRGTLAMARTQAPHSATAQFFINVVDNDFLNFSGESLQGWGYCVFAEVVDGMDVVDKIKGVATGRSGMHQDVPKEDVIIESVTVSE

B1: polyphosphate kinase (Ppk) (protein, UniProt P0A7B1 1-688)
chain: MGQEKLYIEKELSWLSFNERVLQEAADKSNPLIERMRFLGIYSNNLDEFYKVRFAELKRRIIISEEQGSNSHSRHLLGKIQSRVLKADQEFDGLYNELLLEMARNQIFLINERQLSVNQQNWLRHYFKQYLRQHITPILINPDTDLVQFLKDDYTYLAVEIIRGDTIRYALLEIPSDKVPRFVNLPPEAPRRRKPMILLDNILRYCLDDIFKGFFDYDALNAYSMKMTRDAEYDLVHEMEASLMELMSSSLKQRLTAEPVRFVYQRDMPNALVEVLREKLTISRYDSIVPGGRYHNFKDFINFPNVGKANLVNKPLPRLRHIWFDKAQFRNGFDAIRERDVLLYYPYHTFEHVLELLRQASFDPSVLAIKINIYRVAKDSRIIDSMIHAAHNGKKVTVVVELQARFDEEANIHWAKRLTEAGVHVIFSAPGLKIHAKLFLISRKENGEVVRYAHIGTGNFNEKTARLYTDYSLLTADARITNEVRRVFNFIENPYRPVTFDYLMVSPQNSRRLLYEMVDREIANAQQGLPSGITLKLNNLVDKGLVDRLYAASSSGVPVNLLVRGMCSLIPNLEGISDNIRAISIVDRYLEHDRVYIFENGGDKKVYLSSADWMTRNIDYRIEVATPLLDPRLKQRVLDIIDILFSDTVKARYIDKELSNRYVPRGNRRKVRAQLAIYDYIKSLEQPE
B2: AhpF subunit of alkyl hydroperoxide reductase (protein, UniProt P35340 1-521)
chain: MLDTNMKTQLKAYLEKLTKPVELIATLDDSAKSAEIKELLAEIAELSDKVTFKEDNSLPVRKPSFLITNPGSNQGPRFAGSPLGHEFTSLVLALLWTGGHPSKEAQSLLEQIRHIDGDFEFETYYSLSCHNCPDVVQALNLMSVLNPRIKHTAIDGGTFQNEITDRNVMGVPAVFVNGKEFGQGRMTLTEIVAKIDTGAEKRAAEELNKRDAYDVLIVGSGPAGAAAAIYSARKGIRTGLMGERFGGQILDTVDIENYISVPKTEGQKLAGALKVHVDEYDVDVIDSQSASKLIPAAVEGGLHQIETASGAVLKARSIIVATGAKWRNMNVPGEDQYRTKGVTYCPHCDGPLFKGKRVAVIGGGNSGVEAAIDLAGIVEHVTLLEFAPEMKADQVLQDKLRSLKNVDIILNAQTTEVKGDGSKVVGLEYRDRVSGDIHNIELAGIFVQIGLLPNTNWLEGAVERNRMGEIIIDAKCETNVKGVFAAGDCTTVPYKQIIIATGEGAKASLSAFDYLIRTKTA
B3: SeqA (protein, UniProt P0AFY8 1-181)
chain: MKTIEVDDELYSYIASHTKHIGESASDILRRMLKFSAASQPAAPVTKEVRVASPAIVEAKPVKTIKDKVRAMRELLLSDEYAEQKRAVNRFMLLLSTLYSLDAQAFAEATESLHGRTRVYFAADEQTLLKNGNQTKPKHVPGTPYWVITNTNTGRKCSMIEHIMQSMQFPAELIEKVCGTI
B4: FabH (protein, UniProt P0A6R0 1-317)
chain: MYTKIIGTGSYLPEQVRTNADLEKMVDTSDEWIVTRTGIRERHIAAPNETVSTMGFEAATRAIEMAGIEKDQIGLIVVATTSATHAFPSAACQIQSMLGIKGCPAFDVAAACAGFTYALSVADQYVKSGAVKYALVVGSDVLARTCDPTDRGTIIIFGDGAGAAVLAASEEPGIISTHLHADGSYGELLTLPNADRVNPENSIHLTMAGNEVFKVAVTELAHIVDETLAANNLDRSQLDWLVPHQANLRIISATAKKLGMSMDNVVVTLDRHGNTSAASVPCALDEAVRDGRIKPGQLVLLEAFGGGFTWGSALVRF
B5: BipA GTPase (protein, UniProt P0DTT0 1-607)
chain: MIEKLRNIAIIAHVDHGKTTLVDKLLQQSGTFDSRAETQERVMDSNDLEKERGITILAKNTAIKWNDYRINIVDTPGHADFGGEVERVMSMVDSVLLVVDAFDGPMPQTRFVTKKAFAYGLKPIVVINKVDRPGARPDWVVDQVFDLFVNLDATDEQLDFPIVYASALNGIAGLDHEDMAEDMTPLYQAIVDHVPAPDVDLDGPFQMQISQLDYNSYVGVIGIGRIKRGKVKPNQQVTIIDSEGKTRNAKVGKVLGHLGLERIETDLAEAGDIVAITGLGELNISDTVCDTQNVEALPALSVDEPTVSMFFCVNTSPFCGKEGKFVTSRQILDRLNKELVHNVALRVEETEDADAFRVSGRGELHLSVLIENMRREGFELAVSRPKVIFREIDGRKQEPYENVTLDVEEQHQGSVMQALGERKGDLKNMNPDGKGRVRLDYVIPSRGLIGFRSEFMTMTSGTGLLYSTFSHYDDVRPGEVGQRQNGVLISNGQGKAVAFALFGLQDRGKLFLGHGAEVYEGQIIGIHSRSNDLTVNCLTGKKLTNMRASGTDEAVVLVPPIRMTLEQALEFIDDDELVEVTPTSIRIRKRHLTENDRRRANRAPKDD
B6: KatE (protein, UniProt P21179 1-753)
chain: MSQHNEKNPHQHQSPLHDSSEAKPGMDSLAPEDGSHRPAAEPTPPGAQPTAPGSLKAPDTRNEKLNSLEDVRKGSENYALTTNQGVRIADDQNSLRAGSRGPTLLEDFILREKITHFDHERIPERIVHARGSAAHGYFQPYKSLSDITKADFLSDPNKITPVFVRFSTVQGGAGSADTVRDIRGFATKFYTEEGIFDLVGNNTPIFFIQDAHKFPDFVHAVKPEPHWAIPQGQSAHDTFWDYVSLQPETLHNVMWAMSDRGIPRSYRTMEGFGIHTFRLINAEGKATFVRFHWKPLAGKASLVWDEAQKLTGRDPDFHRRELWEAIEAGDFPEYELGFQLIPEEDEFKFDFDLLDPTKLIPEELVPVQRVGKMVLNRNPDNFFAENEQAAFHPGHIVPGLDFTNDPLLQGRLFSYTDTQISRLGGPNFHEIPINRPTCPYHNFQRDGMHRMGIDTNPANYEPNSINDNWPRETPPGPKRGGFESYQERVEGNKVRERSPSFGEYYSHPRLFWLSQTPFEQRHIVDGFSFELSKVVRPYIRERVVDQLAHIDLTLAQAVAKNLGIELTDDQLNITPPPDVNGLKKDPSLSLYAIPDGDVKGRVVAILLNDEVRSADLLAILKALKAKGVHAKLLYSRMGEVTADDGTVLPIAATFAGAPSLTVDAVIVPCGNIADIADNGDANYYLMEAYKHLKPIALAGDARKFKATIKIADQGEEGIVEADSADGSFMDELLTLMAAHRVWSRIPKIDKIPA
B7: GlpD (protein, UniProt P13035 1-501)
chain: METKDLIVIGGGINGAGIAADAAGRGLSVLMLEAQDLACATSSASSKLIHGGLRYLEHYEFRLVSEALAEREVLLKMAPHIAFPMRFRLPHRPHLRPAWMIRIGLFMYDHLGKRTSLPGSTGLRFGANSVLKPEIKRGFEYSDCWVDDARLVLANAQMVVRKGGEVLTRTRATSARRENGLWIVEAEDIDTGKKYSWQARGLVNATGPWVKQFFDDGMHLPSPYGIRLIKGSHIVVPRVHTQKQAYILQNEDKRIVFVIPWMDEFSIIGTTDVEYKGDPKAVKIEESEINYLLNVYNTHFKKQLSRDDIVWTYSGVRPLCDDESDSPQAITRDYTLDIHDENGKAPLLSVFGGKLTTYRKLAEHALEKLTPYYQGIGPAWTKESVLPGGAIEGDRDDYAARLRRRYPFLTESLARHYARTYGSNSELLLGNAGTVSDLGEDFGHEFYEAELKYLVDHEWVRRADDALWRRTKQGMWLNADQQSRVSQWLVEYTQQRLSLAS
B8: AcnB (protein, UniProt P36683 1-865)
chain: MLEEYRKHVAERAAEGIAPKPLDANQMAALVELLKNPPAGEEEFLLDLLTNRVPPGVDEAAYVKAGFLAAIAKGEAKSPLLTPEKAIELLGTMQGGYNIHPLIDALDDAKLAPIAAKALSHTLLMFDNFYDVEEKAKAGNEYAKQVMQSWADAEWFLNRPALAEKLTVTVFKVTGETNTDDLSPAPDAWSRPDIPLHALAMLKNAREGIEPDQPGVVGPIKQIEALQQKGFPLAYVGDVVGTGSSRKSATNSVLWFMGDDIPHVPNKRGGGLCLGGKIAPIFFNTMEDAGALPIEVDVSNLNMGDVIDVYPYKGEVRNHETGELLATFELKTDVLIDEVRAGGRIPLIIGRGLTTKAREALGLPHSDVFRQAKDVAESDRGFSLAQKMVGRACGVKGIRPGAYCEPKMTSVGSQDTTGPMTRDELKDLACLGFSADLVMQSFCHTAAYPKPVDVNTHHTLPDFIMNRGGVSLRPGDGVIHSWLNRMLLPDTVGTGGDSHTRFPIGISFPAGSGLVAFAAATGVMPLDMPESVLVRFKGKMQPGITLRDLVHAIPLYAIKQGLLTVEKKGKKNIFSGRILEIEGLPDLKVEQAFELTDASAERSAAGCTIKLNKEPIIEYLNSNIVLLKWMIAEGYGDRRTLERRIQGMEKWLANPELLEADADAEYAAVIDIDLADIKEPILCAPNDPDDARPLSAVQGEKIDEVFIGSCMTNIGHFRAAGKLLDAHKGQLPTRLWVAPPTRMDAAQLTEEGYYSVFGKSGARIEIPGCSLCMGNQARVADGATVVSTSTRNFPNRLGTGANVFLASAELAAVAALIGKLPTPEEYQTYVAQVDKTAVDTYRYLNFNQLSQYTEKADGVIFQTAV

These are yes or no findings as the source states them, for the method shown. In cells and extracts the contact can be indirect. A yes stands for co-enrichment or nearness to the bait. Other partners may have been found. Tags and fused reporters may be left off the sequences shown.

One assay has as its target T1, Hexa-His-tagged PpiC (wild type). Briefly: affinity purification with mass spectrometry; His6-tagged PPI induced with 0.1 mM IPTG in an E. coli T7 express derivative lacking all six PPIs (SR21984); soluble lysate on Ni-NTA beads, 50 mM NaH2PO4, 300 mM NaCl, eluted with a linear imidazole gradient (50-500 mM); co-eluting proteins resolved by SDS-PAGE (for FkpB also 2D gels) and identified by MALDI-TOF.
On to B1, for which the binding entry is “binds”. Take B2: the binding entry was “binds”. With B3, the binding entry was “binds”. On to B4, for which the binding entry is given as “binds”. B5: the binding entry is reported as “binds”.

The target in a further assay is T2, His6-tagged PpiB (wild type) (E. coli). The description is as above.
For the molecule B6, the binding result is “binds”. For B7, the binding entry was “binds”. Turning to B8, the binding result is reported as “binds”.

The next assay has the same target. Described as above. The source holds these as a separate data set.
As to MinD (from UniProt P0AEZ3 1-270), the binding result is listed as “binds”. Still for that read-out and setting: as for KatG (from UniProt P13029 1-726), the entry is “binds”; as for “heat shock protein HslU (from UniProt P0A6H5 1-443)”, “binds”.

LpdA (from UniProt P0A9P0 1-474): the binding result is recorded as “binds”. Same read-out and setting: then ClpX (from UniProt P0A6H1 1-424), with “binds”; and FtsZ (from UniProt P0A9A6 1-383), with “binds”.

MnmG (from UniProt P0A6U3 1-629): the binding entry is “binds”. As to Eno (from UniProt P0A6P9 1-432), the binding result is listed as “binds”. In the case of RecA (from UniProt P0A7G6 1-353), the binding result is given as “binds”.

Source of the values: PMC7353009, “Identification of Substrates of Cytoplasmic Peptidyl-Prolyl Cis/Trans Isomerases and Their Collective Essentiality in Escherichia Coli” (International Journal of Molecular Sciences, 2020).
